No constants are given. Whether binding was seen depends on the method and setting. Binding seen in cells or lysates may run through a third protein. Some binding calls cover weakened binding; strength is not graded here.
Tests used:
[1] = biological target: Prokineticin receptor 2 (PKR2), His-tagged, expressed in S. cerevisiae from pYESC3-PKR2 (UniProt Q8NFJ6); experiment: cross-linking; membrane fraction (20 μg of protein) of yeast co-expressing PKR2 or ΔN-PKR2 with MRAP2, 1 mM BS3 in 25 mM MOPS pH 7.5, 30 min at room temperature; SDS-PAGE, blot with anti-MRAP2
[2] = biological target: GST fusion protein PKR2-NT (the 69 amino acids of the amino terminus of PKR2 fused with GST) (UniProt Q8NFJ6); experiment: pull-down; R2-GST (PKR2-NT) or GST on glutathione-Sepharose beads, buffer A (PBS, 1% Nonidet P 40, 1 mM EDTA), incubated overnight at 4 °C with total membrane extract of yeast expressing MRAP2; eluted with GSH; Western blot; only the target purified
[3] = biological target: Prokineticin receptor 2 (PKR2), His-tagged, expressed in S. cerevisiae from pYESC3-PKR2 (UniProt Q8NFJ6); experiment: pull-down; solubilized yeast membrane fractions co-expressing His-tagged PKR2 or ΔN-PKR2 with MRAP2, co-precipitated on Ni-NTA His-bind resin under native conditions; blots with anti-His and anti-MRAP2

The chains behind the UniProt entries cited, without tags or fusion partners. Where a name states a change or a piece, a line headed by the entry shows the natural chain unless it says otherwise. A line that says so, or that is headed by a name, gives the form on record, which may keep a tag or linker. Residues count along the entry.
UniProt Q8NFJ6: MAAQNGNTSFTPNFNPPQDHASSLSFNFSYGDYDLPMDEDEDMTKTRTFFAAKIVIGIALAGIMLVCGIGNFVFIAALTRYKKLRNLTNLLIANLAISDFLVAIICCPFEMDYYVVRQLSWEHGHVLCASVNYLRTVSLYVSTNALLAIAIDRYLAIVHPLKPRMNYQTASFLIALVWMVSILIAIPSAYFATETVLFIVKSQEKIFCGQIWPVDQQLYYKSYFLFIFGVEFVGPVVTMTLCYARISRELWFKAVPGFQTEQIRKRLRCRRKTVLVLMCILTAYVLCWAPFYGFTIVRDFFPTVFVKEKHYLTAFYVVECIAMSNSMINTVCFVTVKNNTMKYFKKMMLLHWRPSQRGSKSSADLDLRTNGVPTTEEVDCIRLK
GST fusion protein PKR2-NT (the 69 amino acids of the amino terminus of PKR2 fused with GST): residues 1-69 of Q8NFJ6

Measured: binding

B1: Melanocortin Receptor Accessory Protein 2 (MRAP2), expressed in S. cerevisiae from p413 MRAP2 (protein, UniProt Q96G30 1-205)
chain: MSAQRLISNRTSQQSASNSDYTWEYEYYEIGPVSFEGLKAHKYSIVIGFWVGLAVFVIFMFFVLTLLTKTGAPHQDNAESSEKRFRMNSFVSDFGRPLEPDKVFSRQGNEESRSLFHCYINEVERLDRAKACHQTTALDSDVQLQEAIRSSGQPEEELNRLMKFDIPNFVNTDQNYFGEDDLLISEPPIVLETKPLSQTSHKDLD
binds: all assays above

— publication PMC8946000
